PubChem BioAssay AID652259 | Drosophila RNAi Screening Center – 2013
The screen tested about 22,000 reagents; below is an unselected part of those that have a named target and a result. Of all reagents, 233 (1.1%) got an active call. 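Light values are raw, unnormalised plate reads; the ratio scores behind the reporter calls were not deposited.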 The numbers tell different reagents against one gene apart. A plus sign joins genes that one reagent is predicted to hit. Not given: the amount of reagent, the time to read-out, the dose of the treatment.

Purpose: 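Identify new Wingless signalling regulators in fly cells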 (primary screen)
Cells: Drosophila clone 8 imaginal disc epithelial cells
Reagents: long dsRNA against Drosophila genes
Challenge: pathway stimulated by co-transfected Wingless expression plasmid
Measured: 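Dual luciferase reads per well after Wingless plasmid stimulation: reporter firefly light and Renilla control light; activity is firefly divided by Renilla, a ratio not deposited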
Scale: firefly reporter light: higher = more Wg reporter light, before normalisation; Renilla control light: higher = more transfected or surviving cells
Active means: 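a knock-down is a candidate when at least two out of four statistical tests show it departing from its plate mean; one test alone signals a weak candidate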
Calls: active = candidate regulator (raises or lowers reporter); inactive = not a candidate

gene	reagent	firefly reporter light, replicate 1	firefly reporter light, replicate 2	Renilla control light, replicate 1	Renilla control light, replicate 2	Outcome
dnk (deoxyribonucleoside kinase)	1	11920		3386		inactive
RpL38 (Ribosomal protein L38)	1	7856		2130		inactive
U2af50 (U2 small nuclear riboprotein auxiliary factor 50)	1	2233	8048	681	2008	inactive
U2af50 (U2 small nuclear riboprotein auxiliary factor 50)	2	6.11e5	5.65e5	1.79e5	2.00e5	inactive
Hesr (HES-related)	1	22202		10182		inactive
Smyd4-4 (SET and MYND domain containing, class 4, member 4)	1	6316		2080		inactive
Txl (Thioredoxin-like)	1	1990	7728	1305	2314	inactive
FASN2 (Fatty acid synthase 2)	1	17363		9539		inactive
FASN2 (Fatty acid synthase 2)	2	11959		4115		inactive
CG32354	1	5316		1841		inactive
CG32354	2	2117	9554	2192	5808	inactive
CG32354	3	5.99e5	6.22e5	2.95e5	3.09e5	inactive
CG6567	1	11424		2692		inactive
NELF-B	1	2130	8043	860	2224	inactive
Fife	1	13692		4145		inactive
Fife	2	5706		2170		inactive
Fife	3	5874		2429		inactive
pHCl-1 (pH-sensitive chloride channel 1)	1	2791		920		inactive
pHCl-1 (pH-sensitive chloride channel 1)	2	7290		2872		inactive
pHCl-1 (pH-sensitive chloride channel 1)	3	7632		3968		inactive
pHCl-1 (pH-sensitive chloride channel 1)	4	8304		3717		inactive
CG7714	1	14556		3747		inactive
ninaE (neither inactivation nor afterpotential E)	1	14101		3142		inactive
asRNA:CR43430 + hts	1	6587		1565		inactive
PSMG1 (Proteasome assembly chaperone 1)	1	5942		1952		inactive
Ir54a + sub	1	5712		2141		inactive
twf (twinfilin)	1	5464		1811		inactive
CG32713	1	8.76e5	7.78e5	3.92e5	2836	inactive
f (forked)	1	2113		1078		inactive
f (forked)	2	17892		7749		inactive
f (forked)	3	14391		6576		inactive
obst-I (obstructor-I)	1	14672		3653		inactive
CG12395	1	24596		9553		inactive
ppk27 (pickpocket 27)	1	7880		3477		inactive
ppk27 (pickpocket 27)	2	6.73e5	6.78e5	2.74e5	2.78e5	inactive
Eig71Ef (Ecdysone-induced gene 71Ef)	1	8539		4525		inactive
CG16736	1	15675		4064		inactive
Taz (Tafazzin)	1	8267		3772		inactive
Taz (Tafazzin)	2	4.51e5	4.78e5	1.82e5	1.88e5	inactive
glob2 (globin 2)	1	13372		4313		inactive
AsnRS-m (Asparaginyl-tRNA synthetase, mitochondrial)	1	4685		1696		inactive
Indy (I'm not dead yet)	1	4161		1836		inactive
ND-24 (NADH dehydrogenase (ubiquinone) 24 kDa subunit)	1	3168	8485	1201	3408	inactive

Ordered by “Renilla control light, replicate 1” (low to high): some entries from above.
gene	reagent	firefly reporter light, replicate 1	firefly reporter light, replicate 2	Renilla control light, replicate 1	Renilla control light, replicate 2	Outcome
NELF-B	1	2130	8043	860	2224	inactive
pHCl-1 (pH-sensitive chloride channel 1)	1	2791		920		inactive
Fife	2	5706		2170		inactive
CG32354	2	2117	9554	2192	5808	inactive
Fife	3	5874		2429		inactive
CG6567	1	11424		2692		inactive
pHCl-1 (pH-sensitive chloride channel 1)	2	7290		2872		inactive
pHCl-1 (pH-sensitive chloride channel 1)	4	8304		3717		inactive
CG7714	1	14556		3747		inactive
pHCl-1 (pH-sensitive chloride channel 1)	3	7632		3968		inactive
Fife	1	13692		4145		inactive
CG32354	3	5.99e5	6.22e5	2.95e5	3.09e5	inactive

Additional reagents follow:
gene	reagent	firefly reporter light, replicate 1	firefly reporter light, replicate 2	Renilla control light, replicate 1	Renilla control light, replicate 2	Outcome
Reph (Regulator of eph expression)	1	20409		10108		inactive
Reph (Regulator of eph expression)	2	6.41e5	3.73e5	2.35e5	1.85e5	inactive
CG5704	1	14432		4849		inactive
CG1785	1	2660	4212	1170	1744	inactive
CG1662	1	4129	9035	1204	2848	inactive
car (carnation)	1	4614	9760	1340	1728	inactive
CG11279	1	8069		2886		inactive
Ste:CG33238 + Ste:CG33241 + Ste:CG33236 + 11 more	1	4182		1104		inactive
Ste:CG33238 + Ste:CG33241 + Ste:CG33236 + 11 more	2	13377		7017		inactive
CG13288	1	2052	7142	1712	3510	inactive
CtsL4 (Cathepsin L4)	1	2720	8400	924	3952	inactive
ema (endosomal maturation defective)	1	25716		6807		inactive
CG13722	1	1848	9667	700	3085	inactive
CG13722	2	9.22e5	7.49e5	9.69e5	4.63e5	inactive
Arfip (Arfaptin)	1	6663		2056		inactive
CG17637	1	9106		3052		inactive
Fum4 (Fumarase 4)	1	7.58e5	8.12e5	3.50e5	3.25e5	inactive
m (miniature)	1	17459		9723		inactive
Ir67b (Ionotropic receptor 67b)	1	7750		2853		inactive
CG8950	1	15082		4912		inactive
CG11360	1	3947		1258		inactive
CG11360	2	17277		14599		inactive
CG44836	1	6992		3153		inactive
Clamp (Chromatin-linked adaptor for MSL proteins)	1	16688		5609		inactive
Clamp (Chromatin-linked adaptor for MSL proteins)	2	9.20e5	8.46e5	3.44e5	2.31e5	inactive
Cpr50Ca (Cuticular protein 50Ca)	1	22160		18464		inactive
Cpr50Ca (Cuticular protein 50Ca)	2	6967		2089		inactive
Cpr50Ca (Cuticular protein 50Ca)	3	8936		2420		inactive
Or85c (Odorant receptor 85c)	1	18016		2768		inactive
CG6418	1	1811		1040		inactive
